Values quoted from earlier work in patent publication US20230000950A1, “COMPOSITION COMPRISING GLUCAGON AND GLP-1 AND GIP RECEPTOR DUAL AGONIST AND THERAPEUTIC USE OF SAME” (HANMI PHARM. CO., LTD., priority 2019, published 2023).
For at least one compound, name, drawing or mass did not settle the structure.

Settings: PBC patients treated with UDCA; cited from earlier work

Which “patients in whom sufficient biochemical responses have not been achieved” value does the source give for C[C@H](CCC(=O)O)[C@H]1CC[C@H]2[C@@H]3[C@@H](O)C[C@@H]4C[C@H](O)CC[C@]4(C)[C@H]3CC[C@]12C [UDCA, ursodeoxycholic acid] here?
Its value is “about 40%”.
